Cleaved PARP in drug-treated melanoma cells

From a melanoma drug combination screen (doi:10.1371/journal.pone.0140310); values rounded.

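Human melanoma cells were exposed to a pair of drugs for 72 h in 1,536-well plates and read by automated microscopy after fixing and staining. Each value is the cleaved-PARP-positive fraction of nuclei relative to DMSO-treated wells, in %, so that 100 equals the control and higher values mean more apoptosis. Every drug was used at one fixed concentration, the higher of two screened. The file gives one value for each pair and line, without errors, so small differences may be noise. Basal and induced levels differ widely between cell lines.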 An unselected part of the screen is shown.

Every entry is a combination with ABT-263 at 2 µM: CC1(C)CCC(c2ccc(Cl)cc2)=C(CN2CCN(c3ccc(C(=O)NS(=O)(=O)c4ccc(N[C@H](CCN5CCOCC5)CSc5ccccc5)c(S(=O)(=O)C(F)(F)F)c4)cc3)CC2)C1

Second drug,COLO 792
CN1CCN(c2ccc3nc(-c4c(N)c5c(F)cccc5[nH]c4=O)[nH]c3c2)CC1 at 0.5 µM,12000
CN(NC(=O)CC(=O)NN(C)C(=S)c1ccccc1)C(=S)c1ccccc1 at 0.03 µM,6580
NC(=O)c1ccc(N(C(N)=O)c2c(F)cccc2F)nc1-c1ccc(F)cc1F at 2 µM,866
CCCCCCCCc1ccc(CCC(N)(CO)CO)cc1 at 10 µM,3630
Oc1nc(-c2ccc(C(F)(F)F)cc2)nc2c1CSCC2 at 10 µM,1460
Cc1cn(-c2cc(NC(=O)c3ccc(C)c(Nc4nccc(-c5cccnc5)n4)c3)cc(C(F)(F)F)c2)cn1 at 1 µM,600
CCCCCCCCCCCCCCCCCCOP(=O)([O-])OC1CC[N+](C)(C)CC1 at 2 µM,4780
CCN(CC)CCCCNc1ncc2cc(-c3cc(OC)cc(OC)c3)c(NC(=O)NC(C)(C)C)nc2n1 at 0.5 µM,2730
COc1ccc(C2=N[C@@H](c3ccc(Cl)cc3)[C@@H](c3ccc(Cl)cc3)N2C(=O)N2CCNC(=O)C2)c(OC(C)C)c1 at 0.5 µM,1460
N.N.[Cl][Pt][Cl] at 8 µM,1470
Cn1c(=O)n(-c2ccc(C(C)(C)C#N)cc2)c2c3cc(-c4cnc5ccccc5c4)ccc3ncc21 at 0.02 µM,1630
Nc1nc(F)nc2c1ncn2[C@@H]1O[C@H](CO)[C@@H](O)[C@@H]1O at 1 µM,2340
O=c1[nH]nc(Sc2ncc([N+](=O)[O-])s2)n1-c1ccc2c(c1)OCCO2 at 1 µM,982
CS(=O)(=O)c1ccc(C(=O)Nc2ccc(Cl)c(-c3ccccn3)c2)c(Cl)c1 at 5 µM,1410
Cn1cnc2c(F)c(Nc3ccc(Br)cc3Cl)c(C(=O)NOCCO)cc21 at 0.075 µM,1660
Oc1cc(-c2nc(-c3ccccc3)[nH]c2-c2ccncc2)ccc1Cl at 1 µM,1410
O=C(Oc1ccc([N+](=O)[O-])cc1)N1CCC(C(O)(c2ccc3c(c2)OCO3)c2ccc3c(c2)OCO3)CC1 at 5 µM,473
COc1ccc(-c2ccc3c(N4CCOCC4)nc(N4C[C@@H](C)O[C@@H](C)C4)nc3n2)cc1CO at 0.1 µM,406
CS(=O)(=O)CCNCc1ccc(-c2ccc3ncnc(Nc4ccc(OCc5cccc(F)c5)c(Cl)c4)c3c2)o1 at 4 µM,8280
CCCCCCCCCCCC1=C(O)C(=O)C=C(O)C1=O at 6 µM,2250
NC1(c2ccc(-c3nc4ccn5c(=O)[nH]nc5c4cc3-c3ccccc3)cc2)CCC1 at 2 µM,1890
Cn1cc(C2=C(c3cn(C4CCN(Cc5ccccn5)CC4)c4ccccc34)C(=O)NC2=O)c2ccccc21 at 4 µM,5470
CC(C)CCN1c2nc(Nc3cc(F)c(O)c(F)c3)ncc2N(C)C(=O)C1C (stereo not given) at 1 µM,1310
CC(=O)c1c(C)c2cnc(Nc3ccc(N4CCNCC4)cn3)nc2n(C2CCCC2)c1=O at 0.2 µM,1130
C[C@]1(c2nc3c(C(N)=O)cccc3[nH]2)CCCN1 at 7 µM,765
COc1cc(Nc2ncc(F)c(Nc3ccc4c(n3)NC(=O)C(C)(C)O4)n2)cc(OC)c1OC at 2 µM,2650
Nc1cccc2c1CN(C1CCC(=O)NC1=O)C2=O (stereo not given) at 5 µM,1180
C=CCNC1=C2C[C@@H](C)C[C@H](OC)[C@H](O)[C@@H](C)/C=C(\C)[C@H](OC(N)=O)[C@@H](OC)/C=C\C=C(/C)C(=O)NC(=CC1=O)C2=O at 0.01 µM,1770
CNC(=O)c1cc(Oc2ccc(NC(=O)Nc3ccc(Cl)c(C(F)(F)F)c3)cc2)ccn1 at 2 µM,1390
Cc1cc(Nc2cc(N3CCN(C)CC3)nc(/C=C/c3ccccc3)n2)n[nH]1 at 0.2 µM,7390
CN(C)S(=O)(=O)c1ccc2c(c1)/C(=C/c1cc3c([nH]1)CCCC3)C(=O)N2 at 2 µM,5960
Cn1cc(/C=C2\C(=O)Nc3cccnc32)c2ccccc21 at 2 µM,749
C[As](C)SC[C@H](NC(=O)CC[C@H](N)C(=O)O)C(=O)NCC(=O)O at 2 µM,1750
O=C(O)[C@@H]1[O][Sb](=[O])([O][Sb]2(=[O])[O][C@H]([C@H](O)CO)[C@H](O)[C@H](C(=O)O)[O]2)[O][C@H]([C@H](O)CO)[C@@H]1O (stereo not given in full) at 10 µM,1240
COc1cc2ncnc(Nc3ccc(Oc4ccccc4)cc3)c2cc1OC at 10 µM,1510
O=C(Nc1ccccc1)c1cc([N+](=O)[O-])ccc1Cl at 10 µM,3780

For reference, 3 entries once more:

Second drug,COLO 792
Cn1cc(C2=C(c3cn(C4CCN(Cc5ccccn5)CC4)c4ccccc34)C(=O)NC2=O)c2ccccc21 at 4 µM,5470
Cc1cn(-c2cc(NC(=O)c3ccc(C)c(Nc4nccc(-c5cccnc5)n4)c3)cc(C(F)(F)F)c2)cn1 at 1 µM,600
Cc1cc(Nc2cc(N3CCN(C)CC3)nc(/C=C/c3ccccc3)n2)n[nH]1 at 0.2 µM,7390